# Screening data, single-dose tests

Toxoplasma: 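Assay of Toxoplasma gondii numbers, read through their beta-galactosidase reporter with a colour substrate. Compounds at 10 µM. The record gives no direction; the compounds picked for IC50 retests had high values, so higher reads as fewer parasites. Of about 67,000 compounds tested this way, about 260 (0.38%) reached 50% or more in at least one test.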
T. brucei: 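Whole-parasite assay of Trypanosoma brucei over 72 hours; the read-out is not stated. Compounds at 30 µM. Higher reads as stronger inhibition (inferred: compounds with an IC50 in retests scored well above the rest). Values scatter widely below zero; nearly all retest evidence comes from the higher of the two concentrations used. About 64,000 compounds were tested under these conditions; 1.5% (about 940) showed 50% or more at least once.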
Leishmania in macrophages: 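Cell assay of Leishmania donovani living inside macrophages; the read-out is not stated. Compounds at 30 µM. Direction is inferred from retests: higher values go with stronger inhibition. Size under these conditions: about 69,000 compounds, about 1,000 of them at 50% or above in at least one test.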

The filed quantity is “Percent Effect” (%).
The record does not define 0% and 100%; most values in the screen are far below 50% and negative numbers occur (in some assays of this library far below -100).
This is an unselected part of the compounds tested.
Two or more numbers in one place are separate tests of the same structure; such repeats can differ widely.
A dash means the value is not listed here; it may have been measured.

| structure | Toxoplasma | T. brucei | Leishmania in macrophages |
|---|---|---|---|
| `CC(C)c1cc(C(=O)NCCc2nc(-c3cccnc3)n[nH]2)[nH]n1` | 13.26% | -14.95% | -34.42% |
| `[H][C@]12CNC[C@@]1(C(=O)NCc1cc(C)n[nH]1)CN(C(=O)COC)C2` | 0.8739% | -18.45% | 26.16% |
| `Cc1cc(CN(C)C2CCCN(Cc3noc(C)n3)C2)on1` (configuration not stated) | -0.3474% | -8.297% | -8.522% |
| `CC(C)C1SCC(=O)Nc2c1cnn2-c1ccc(F)cc1` (configuration not stated) | - | 13.58% | -10.63% |
| `Cc1cc(C(=O)Nc2cc(C3CC3)n[nH]2)c2c(C)nn(C)c2n1` | 0.3874% | -18.66% | -8.432% |
| `CCOC(=O)C1CN(S(C)(=O)=O)Cc2ncn(CC)c21` (configuration not stated) | -0.8966% | -25.47% | 25.22% |
| `Cc1cc(C(=O)NS(C)(=O)=O)ccc1I` | 0.141% | -0.1296% | 10.42% |
| `COc1ccccc1CN(CC1CCCO1)C(=O)c1cc(C)n[nH]1` (configuration not stated) | 1.676% | 0.5422% | 10.09% |
| `Cc1n[nH]c(C2CN(C(=O)c3ccoc3C)CCO2)n1` (configuration not stated) | -6.874% | -27.19% | 18.71% |
| `CC(=O)N1CCn2cc(CNC(=O)c3cccn3C)nc2C1` | -0.3882% | 31.45% | 16.14% |
| `CC(C)c1cc(O)nc(C2CCCN2C(=O)C2CC2)n1` (configuration not stated) | 14.31% | -26.47% | 18.18% & -1.736% |
| `COc1cc(C)ccc1C(=O)N1CCC2(CCC(=O)N(C(C)C)C2)CC1` | -12.39% | -11.52% | 8.721% |
| `COCCCC1CCCN(Cc2c(C)ccc3ncccc23)C1` (configuration not stated) | -5.996% | 2.697% | 13.77% |
| `COCC(=O)N[C@H](C)c1onc(-c2ccc(F)cc2)c1C(=O)O` | -5.03% | 0.5011% | 5.828% |
| `O=C(O)C(F)(F)F.[H][C@@]12CCCO[C@]1([H])[C@H](N1CCCC1=O)CN(c1nnc(C)s1)C2` | 3.614% | -30.41% | 31.61% |
| `CN(C)S(=O)(=O)N1CCC(OCCCc2ccccc2)C1` (configuration not stated) | 4.609% | -20.52% | 8.732% |
| `Cc1nc2cc(C3CCN(Cc4cccc(F)c4F)C3)nn2c(O)c1C.O=C(O)CC(O)(CC(=O)O)C(=O)O` (configuration not stated) | 49.65% | 17.52% | 30.67% |
| `O=C(Cc1ccc2c(c1)OCCO2)NC1CC1` | -11.95% | -5.913% | -9.284% |
| `CN(C)CCN(C)c1ccc(-c2nc(COc3ccccc3)no2)cn1` | 16.88% | 36.49% | 42.47% |
| `CNC(=O)C1CCN(c2nc3nc[nH]c(=O)c3s2)CC1` | - | -9.791% | 43.7% |
| `CCc1nc(CN2CCCN(C(=O)c3cncnc3C)CC2)cs1` | 2.357% | -6.699% | 7.919% |
| `CC(C)(O)CN1CC(C)(C)CN(C(=O)CCc2ccccc2)CC1=O` | -1.013% | 2.821% | 4.543% |
| `Cc1nc2ccc(C(=O)N3CC[C@H](O)[C@@H](N4CCOCC4)CC3)cc2[nH]1` | -13.17% | 6.889% | 15.11% & 14.74% |
| `Cc1ccc(S(=O)(=O)N2CCCC3(CCCN3S(C)(=O)=O)C2)cc1F` (configuration not stated) | 18.34% | -19.49% | 25.1% |
| `COc1cc(C(=O)NS(=O)(=O)c2cncc(Br)c2)ccc1C` | 1.609% | -13.46% | 11.33% |
| `CCN1CC(C(=O)NCc2cccnc2-n2cccn2)CC1=O` (configuration not stated) | 9.085% | - | 6.804% |
| `CC(=O)c1cn(CC(=O)NC(C(=O)O)C(C)C)c2ccccc12` (configuration not stated) | -6.167% | -13.2% | -0.9588% |
| `O=C(Nc1cnn(-c2ccccc2Cl)c1)NC1CCC(O)CC1` (configuration not stated) | 5.968% | -41.11% | 16.91% |
| `CNC(=O)c1cc2c(nc1NCC(C)C)CCN(C)CC2.O=C(O)C(F)(F)F.O=C(O)C(F)(F)F` | -4.936% | -104.3% | -23.44% |
| `COc1ccc(CN2CC[C@H](NC(C)=O)[C@@H](O)CC2)c(OC)c1` | 2.755% | 14.68% | 1.739% |
| `C=C(C)CN(CC)C(=O)c1cc(F)ccc1NS(C)(=O)=O` | 6.12% | -47.55% | 16.46% |
| `O=C(NC1(C(=O)O)CCCCC1)C1Cc2ccccc2O1` (configuration not stated) | 5.181% | 13.64% | 31.82% |
| `O=S(=O)(c1cccnc1)N1CCN(Cc2nc(-c3ccco3)cs2)CC1` | -10.95% | -0.2583% | 15.79% & 17.89% |
| `CC(C)(O)c1cn(C2CCN(C(=O)CCc3ccncc3)CC2)nn1` | -15.67% | - | -12.04% |
| `CC1=Nc2c(c(=O)[nH]n2C2CCOCC2)C(c2cccc(O)c2)S1` (configuration not stated) | 11.73% | 0.7129% | 2.656% |
| `CCc1nc(CN(C(C)=O)C2CCN(Cc3csc(C)n3)C2)no1` (configuration not stated) | -2.84% | - | 6.845% |
| `NC(=O)N1CCC(NCc2cc(Br)ccc2Cl)CC1` | -6.832% | 10.72% | 9.976% |
| `O=C(O)C(F)(F)F.O=C(O)C(F)(F)F.[H][C@@]12C[C@@H](Oc3cccc(F)c3)CN1CCN(C(=O)Cc1ccccn1)C2` | -0.3765% | - | 10.28% |
| `COCC(=O)N(Cc1cccnc1)CC1CCN(C2CCCC2)CC1` | -3.432% | 5.013% | 23.57% |
| `CN1CCCC(CCC(=O)NCCCn2ncc3ccccc32)C1` (configuration not stated) | -7.872% | -14.89% | 7.972% |
| `CN1CC2(CCN(C(=O)CCc3nc4cccnc4n3C)C2)OC1=O` (configuration not stated) | 33.99% | -104.6% | -9.875% |
| `CCN1CCNC(=O)C12CCN(C(=O)Cc1ccccn1)CC2` | 1.003% | -12.63% | 13.41% |
| `O=C1OCCN1CCN1CCCN(Cc2ccccc2F)CC1` | -0.8759% | -19.62% | 27.5% |
| `CCOc1cccc(COC(=O)c2cscn2)n1` | 0.5708% | -25.05% | 14.52% |
| `CCOc1cccc(CCNC(=O)Cc2ccccc2O)n1` | -1.748% | -0.3703% | 3.202% |
| `CC(C)COc1cncc(N(C)C2CCN(c3ncccn3)CC2)n1` | 28.45% | 90.23% | -2.287% |
| `CCN1CC(O)CN(C(=O)c2cccc(C(F)(F)F)c2)CC1=O` (configuration not stated) | -48.28% | -10.23% | -1.323% |
| `CN1CCN(CCO)C(=O)C12CCN(Cc1ccsc1)CC2.O=C(O)C(F)(F)F.O=C(O)C(F)(F)F` | 2.746% | -7.984% | 31.89% |
| `COc1c(CNCC(=O)N2CCN(C)CC2)c(C(C)C)nn1C` | 0% | -17.99% | 41.74% |
| `COc1ccc(CN2CC3(CCNCC3)CCC2=O)c(F)c1F` | 12.08% | -55.8% | 2.262% |
| `c1ccc(-c2nc(CNC3CCc4ncnn4C3)no2)cc1` (configuration not stated) | -17.47% | -13.8% | -1.933% |
| `CCCN1CCC(NC(=O)c2ccnc(SCC)c2)CC1` | -8.575% | 10.81% | -2.561% & -2.855% |
| `Cc1ccc(N2CCC3(CCN(C(N)=O)CC3)CC2)nn1` | -7.008% | -14.31% | -9.243% |
| `[H][C@@]12CCCCCN(C)[C@@]1([H])[C@H](c1ccccc1)CN2C(=O)c1cccnc1` | -14.23% | -26.38% | 15.91% |
| `CS(=O)(=O)N1CC2(CCN(Cc3ccccn3)C2)Cc2ccccc21` (configuration not stated) | -0.8529% | - | -2.569% |
| `CC1(C(=O)N2CCN(c3cnccn3)CC2)CNCCO1` (configuration not stated) | -1.145% | -12.27% | -4.097% |

Repeated from the top, 4 entries:

With CC(C)c1cc(C(=O)NCCc2nc(-c3cccnc3)n[nH]2)[nH]n1 the screen gave Toxoplasma: 13.26%; T. brucei: -14.95%; Leishmania in macrophages: -34.42%.
With [H][C@]12CNC[C@@]1(C(=O)NCc1cc(C)n[nH]1)CN(C(=O)COC)C2 the screen gave Toxoplasma: 0.8739%; T. brucei: -18.45%; Leishmania in macrophages: 26.16%.
With Cc1cc(CN(C)C2CCCN(Cc3noc(C)n3)C2)on1 (configuration not stated) the screen gave Toxoplasma: -0.3474%; T. brucei: -8.297%; Leishmania in macrophages: -8.522%.
With CC(C)C1SCC(=O)Nc2c1cnn2-c1ccc(F)cc1 (configuration not stated) the screen gave T. brucei: 13.58%; Leishmania in macrophages: -10.63%.

Source: ChEMBL document CHEMBL3988442, “University of Dundee, Small-Polar-MMV Screening Library” (2021).